{
  "sequences": {"note": "Chains of the proteins cited; added tags and fusions are not shown. Lines headed by an entry give the natural chain unless they say otherwise; changes in a name come on top.", "UniProt Q86Y79": "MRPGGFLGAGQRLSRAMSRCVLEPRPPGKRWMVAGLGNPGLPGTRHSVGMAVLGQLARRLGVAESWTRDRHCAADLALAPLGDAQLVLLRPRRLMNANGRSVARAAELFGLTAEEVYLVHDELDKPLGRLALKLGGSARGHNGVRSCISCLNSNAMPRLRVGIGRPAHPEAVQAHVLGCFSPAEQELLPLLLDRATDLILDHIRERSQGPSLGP", "UniProt P10586, whole entry, looked up": "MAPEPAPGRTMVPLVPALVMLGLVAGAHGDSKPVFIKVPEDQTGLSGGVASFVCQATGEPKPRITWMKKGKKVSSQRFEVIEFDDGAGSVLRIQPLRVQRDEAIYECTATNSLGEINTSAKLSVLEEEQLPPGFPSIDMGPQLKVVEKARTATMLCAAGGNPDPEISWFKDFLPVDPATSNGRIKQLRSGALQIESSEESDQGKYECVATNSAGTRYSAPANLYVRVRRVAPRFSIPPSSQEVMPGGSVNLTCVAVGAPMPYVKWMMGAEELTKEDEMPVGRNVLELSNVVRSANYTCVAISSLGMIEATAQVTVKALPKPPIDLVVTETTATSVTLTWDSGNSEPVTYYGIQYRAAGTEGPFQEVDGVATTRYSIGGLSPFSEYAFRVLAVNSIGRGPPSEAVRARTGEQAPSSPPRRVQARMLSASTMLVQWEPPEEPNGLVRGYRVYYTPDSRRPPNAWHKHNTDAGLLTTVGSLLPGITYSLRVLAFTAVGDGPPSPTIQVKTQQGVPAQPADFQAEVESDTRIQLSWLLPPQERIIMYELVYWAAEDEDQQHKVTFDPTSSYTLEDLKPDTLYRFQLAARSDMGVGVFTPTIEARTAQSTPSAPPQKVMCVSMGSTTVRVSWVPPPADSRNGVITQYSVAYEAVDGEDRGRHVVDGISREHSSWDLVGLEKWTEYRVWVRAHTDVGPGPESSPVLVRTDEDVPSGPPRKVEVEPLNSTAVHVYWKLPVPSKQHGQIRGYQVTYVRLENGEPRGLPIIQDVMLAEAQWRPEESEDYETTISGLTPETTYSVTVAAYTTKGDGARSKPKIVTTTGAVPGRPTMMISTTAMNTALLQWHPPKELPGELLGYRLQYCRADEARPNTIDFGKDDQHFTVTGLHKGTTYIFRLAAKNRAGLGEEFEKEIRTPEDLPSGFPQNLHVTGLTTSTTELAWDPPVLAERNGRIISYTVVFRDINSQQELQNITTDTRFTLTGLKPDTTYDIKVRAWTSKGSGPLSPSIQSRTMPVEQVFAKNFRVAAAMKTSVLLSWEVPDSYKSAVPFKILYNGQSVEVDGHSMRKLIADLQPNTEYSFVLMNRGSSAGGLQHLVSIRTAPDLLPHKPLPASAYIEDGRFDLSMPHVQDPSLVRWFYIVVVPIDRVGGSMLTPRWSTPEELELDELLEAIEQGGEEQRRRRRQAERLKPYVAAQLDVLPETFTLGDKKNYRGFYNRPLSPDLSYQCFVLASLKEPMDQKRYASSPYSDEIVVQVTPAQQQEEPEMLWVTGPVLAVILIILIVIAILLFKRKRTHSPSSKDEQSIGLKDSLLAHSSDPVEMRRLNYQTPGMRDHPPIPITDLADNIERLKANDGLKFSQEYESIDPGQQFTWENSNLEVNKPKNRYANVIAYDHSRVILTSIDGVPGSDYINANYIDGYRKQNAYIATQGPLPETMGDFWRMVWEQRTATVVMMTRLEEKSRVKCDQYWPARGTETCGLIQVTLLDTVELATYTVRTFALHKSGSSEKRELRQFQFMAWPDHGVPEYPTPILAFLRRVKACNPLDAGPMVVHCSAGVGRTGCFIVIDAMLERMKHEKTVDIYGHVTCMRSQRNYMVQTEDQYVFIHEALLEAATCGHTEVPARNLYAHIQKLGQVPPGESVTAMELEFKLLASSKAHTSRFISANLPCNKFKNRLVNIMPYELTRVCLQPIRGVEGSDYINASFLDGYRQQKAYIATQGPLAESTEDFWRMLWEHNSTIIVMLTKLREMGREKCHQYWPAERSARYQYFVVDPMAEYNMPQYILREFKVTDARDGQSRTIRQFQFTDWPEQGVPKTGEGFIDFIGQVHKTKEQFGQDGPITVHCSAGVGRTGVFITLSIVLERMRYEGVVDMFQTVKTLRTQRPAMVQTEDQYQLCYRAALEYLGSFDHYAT", "UniProt Q9UL46, whole entry, looked up": "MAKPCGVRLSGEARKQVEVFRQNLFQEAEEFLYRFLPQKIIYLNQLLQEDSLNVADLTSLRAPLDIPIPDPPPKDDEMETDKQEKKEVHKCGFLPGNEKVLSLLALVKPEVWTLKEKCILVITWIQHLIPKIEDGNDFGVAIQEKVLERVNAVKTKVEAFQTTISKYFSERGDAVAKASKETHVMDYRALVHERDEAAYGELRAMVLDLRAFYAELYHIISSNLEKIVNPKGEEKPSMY", "UniProt Q9ULL5": "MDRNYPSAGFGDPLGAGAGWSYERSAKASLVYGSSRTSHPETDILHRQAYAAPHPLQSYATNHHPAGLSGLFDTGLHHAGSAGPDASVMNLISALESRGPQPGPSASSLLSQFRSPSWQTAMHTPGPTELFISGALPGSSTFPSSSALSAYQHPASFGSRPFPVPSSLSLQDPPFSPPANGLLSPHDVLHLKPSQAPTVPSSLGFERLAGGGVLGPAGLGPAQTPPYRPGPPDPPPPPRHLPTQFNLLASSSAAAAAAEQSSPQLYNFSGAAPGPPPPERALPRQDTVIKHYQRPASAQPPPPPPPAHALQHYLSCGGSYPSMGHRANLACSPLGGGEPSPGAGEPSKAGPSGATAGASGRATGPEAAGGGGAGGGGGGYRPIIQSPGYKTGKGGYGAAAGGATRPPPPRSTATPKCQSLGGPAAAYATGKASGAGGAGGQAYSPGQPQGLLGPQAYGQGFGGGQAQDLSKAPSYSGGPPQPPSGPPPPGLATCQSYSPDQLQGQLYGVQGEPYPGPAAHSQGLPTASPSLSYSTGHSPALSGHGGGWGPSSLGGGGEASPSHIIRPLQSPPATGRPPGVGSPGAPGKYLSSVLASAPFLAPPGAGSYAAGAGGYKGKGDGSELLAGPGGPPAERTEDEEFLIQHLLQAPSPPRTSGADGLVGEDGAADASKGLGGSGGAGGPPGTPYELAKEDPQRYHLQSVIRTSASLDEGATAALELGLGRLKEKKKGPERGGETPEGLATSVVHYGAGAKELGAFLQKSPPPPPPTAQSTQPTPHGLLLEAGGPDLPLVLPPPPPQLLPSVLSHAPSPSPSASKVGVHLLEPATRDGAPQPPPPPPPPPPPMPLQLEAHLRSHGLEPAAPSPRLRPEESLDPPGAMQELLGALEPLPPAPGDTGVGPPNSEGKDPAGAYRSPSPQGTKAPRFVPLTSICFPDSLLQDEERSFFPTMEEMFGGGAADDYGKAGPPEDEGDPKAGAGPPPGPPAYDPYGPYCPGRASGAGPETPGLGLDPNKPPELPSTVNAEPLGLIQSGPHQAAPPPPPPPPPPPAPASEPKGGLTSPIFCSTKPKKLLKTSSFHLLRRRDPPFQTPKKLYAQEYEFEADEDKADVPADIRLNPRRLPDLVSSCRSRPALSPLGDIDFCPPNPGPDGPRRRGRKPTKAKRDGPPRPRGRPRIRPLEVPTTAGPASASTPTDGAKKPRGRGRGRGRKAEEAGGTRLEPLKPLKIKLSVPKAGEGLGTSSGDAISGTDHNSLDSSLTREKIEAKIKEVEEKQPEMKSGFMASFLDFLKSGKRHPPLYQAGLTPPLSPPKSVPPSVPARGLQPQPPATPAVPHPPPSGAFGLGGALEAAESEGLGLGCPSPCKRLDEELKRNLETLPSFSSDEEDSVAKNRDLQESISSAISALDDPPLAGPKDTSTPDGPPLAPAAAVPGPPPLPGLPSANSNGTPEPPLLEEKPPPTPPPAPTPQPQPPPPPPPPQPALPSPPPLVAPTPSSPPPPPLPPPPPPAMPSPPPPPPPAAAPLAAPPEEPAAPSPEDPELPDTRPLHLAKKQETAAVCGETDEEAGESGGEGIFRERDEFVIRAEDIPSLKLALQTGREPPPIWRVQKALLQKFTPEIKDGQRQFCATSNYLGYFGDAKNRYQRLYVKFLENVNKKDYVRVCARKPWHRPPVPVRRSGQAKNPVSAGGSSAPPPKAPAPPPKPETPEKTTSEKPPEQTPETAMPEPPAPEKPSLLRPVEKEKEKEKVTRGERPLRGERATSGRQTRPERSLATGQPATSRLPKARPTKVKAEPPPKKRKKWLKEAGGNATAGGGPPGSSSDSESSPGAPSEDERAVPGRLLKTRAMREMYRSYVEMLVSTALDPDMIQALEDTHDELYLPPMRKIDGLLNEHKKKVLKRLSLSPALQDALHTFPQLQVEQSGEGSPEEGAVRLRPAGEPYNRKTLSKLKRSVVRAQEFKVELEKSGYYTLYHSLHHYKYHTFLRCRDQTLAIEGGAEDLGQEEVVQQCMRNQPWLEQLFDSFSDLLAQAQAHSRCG", "UniProt Q5THK1": "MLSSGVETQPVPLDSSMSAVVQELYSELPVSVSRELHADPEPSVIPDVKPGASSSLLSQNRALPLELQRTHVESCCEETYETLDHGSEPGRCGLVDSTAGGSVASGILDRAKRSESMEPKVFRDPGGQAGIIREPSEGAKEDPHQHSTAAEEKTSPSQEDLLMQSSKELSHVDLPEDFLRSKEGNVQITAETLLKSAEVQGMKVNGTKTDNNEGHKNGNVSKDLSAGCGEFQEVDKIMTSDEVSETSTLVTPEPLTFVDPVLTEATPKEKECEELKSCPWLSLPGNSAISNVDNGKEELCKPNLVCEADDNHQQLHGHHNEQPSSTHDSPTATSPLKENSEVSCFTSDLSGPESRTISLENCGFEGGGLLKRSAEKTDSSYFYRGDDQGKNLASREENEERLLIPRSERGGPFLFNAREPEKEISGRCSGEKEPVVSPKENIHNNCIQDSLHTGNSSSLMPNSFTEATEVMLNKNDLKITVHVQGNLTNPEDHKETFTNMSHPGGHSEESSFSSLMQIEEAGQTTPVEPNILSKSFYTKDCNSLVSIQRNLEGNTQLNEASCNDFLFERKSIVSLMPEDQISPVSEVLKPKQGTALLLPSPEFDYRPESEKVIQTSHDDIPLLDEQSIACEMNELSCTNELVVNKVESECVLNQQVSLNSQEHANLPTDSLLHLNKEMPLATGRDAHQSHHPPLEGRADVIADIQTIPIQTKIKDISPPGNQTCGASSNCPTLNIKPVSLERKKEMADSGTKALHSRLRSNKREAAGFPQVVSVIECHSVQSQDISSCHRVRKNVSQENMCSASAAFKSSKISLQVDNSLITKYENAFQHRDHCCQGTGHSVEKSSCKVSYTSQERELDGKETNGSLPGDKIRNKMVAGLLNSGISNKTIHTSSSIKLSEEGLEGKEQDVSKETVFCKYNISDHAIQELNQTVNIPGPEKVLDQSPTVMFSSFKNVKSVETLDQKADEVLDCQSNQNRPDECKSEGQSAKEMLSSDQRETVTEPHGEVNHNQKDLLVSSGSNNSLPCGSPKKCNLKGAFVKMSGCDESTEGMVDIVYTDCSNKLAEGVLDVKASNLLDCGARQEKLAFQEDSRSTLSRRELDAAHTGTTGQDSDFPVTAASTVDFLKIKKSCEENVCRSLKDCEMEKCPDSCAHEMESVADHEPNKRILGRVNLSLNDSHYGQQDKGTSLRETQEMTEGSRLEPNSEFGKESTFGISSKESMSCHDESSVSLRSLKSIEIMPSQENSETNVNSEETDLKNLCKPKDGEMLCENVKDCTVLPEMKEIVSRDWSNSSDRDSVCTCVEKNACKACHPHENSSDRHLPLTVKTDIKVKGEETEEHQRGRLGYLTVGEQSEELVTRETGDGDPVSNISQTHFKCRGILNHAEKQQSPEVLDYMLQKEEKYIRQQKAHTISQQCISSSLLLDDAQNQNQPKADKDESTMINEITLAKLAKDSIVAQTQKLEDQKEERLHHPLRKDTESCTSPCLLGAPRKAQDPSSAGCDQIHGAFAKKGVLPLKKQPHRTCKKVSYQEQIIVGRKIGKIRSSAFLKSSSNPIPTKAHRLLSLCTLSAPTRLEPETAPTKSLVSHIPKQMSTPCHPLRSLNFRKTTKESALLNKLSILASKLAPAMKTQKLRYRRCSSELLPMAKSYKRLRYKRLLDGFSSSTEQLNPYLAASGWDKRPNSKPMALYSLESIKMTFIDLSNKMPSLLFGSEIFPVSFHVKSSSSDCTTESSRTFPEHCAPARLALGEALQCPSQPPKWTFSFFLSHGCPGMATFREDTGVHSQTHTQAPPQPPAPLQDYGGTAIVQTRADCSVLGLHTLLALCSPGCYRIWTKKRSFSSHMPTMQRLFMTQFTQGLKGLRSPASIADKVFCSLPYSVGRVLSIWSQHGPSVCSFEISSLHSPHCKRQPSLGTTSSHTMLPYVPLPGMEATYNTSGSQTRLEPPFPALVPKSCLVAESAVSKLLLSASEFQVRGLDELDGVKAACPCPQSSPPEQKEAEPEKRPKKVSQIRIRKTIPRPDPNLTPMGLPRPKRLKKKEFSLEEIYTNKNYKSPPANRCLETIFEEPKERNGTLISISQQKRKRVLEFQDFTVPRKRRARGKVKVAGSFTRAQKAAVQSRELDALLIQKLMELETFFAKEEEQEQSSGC"},
  "source": "the supplement of paper PMC10849652",
  "note": "The other results are listed elsewhere or left out.",
  "data": [
    {"compound": "Cc1ccc(-n2nc(C(C)(C)C)cc2NC(=O)Nc2ccc(OCCN3CCOCC3)c3ccccc23)cc1 [doramapimod]", "assay": "log2 fold change, soluble protein after heating vs DMSO (PISA); higher = thermal stabilisation; K562 lysate, 10 uM; active = over 0.2 and 3.5 SD of the protein, either way, in both replicates (recomputed)", "method_in_brief": "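Thermal stability, expressed as log-two fold change relative to solvent controls, is given from duplicates. Crude K562 extract in PBS pH 7.4 with 1 mM MgCl2, at 1 mg/mL protein, was treated with 10 μM compound for 30 min and heated in aliquots for 3 min across 48°C-58°C. After pooling, adjustment to 0.5% NP-40 at 4°C and centrifugation at 21,000xg for 90 min, supernatant protein was measured by TMTpro 16plex LC-MS/MS with channel sums equalised.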", "values": [
      {"target": "PTRH1 (UniProt Q86Y79)", "log2 fold change": "inactive: -0.001"},
      {"target": "PRSS21 (UniProt Q9Y6M0)", "log2 fold change": "inactive: 0.045"},
      {"target": "PSMB3 (UniProt P49720)", "log2 fold change": "inactive: -0.003"},
      {"target": "PTPA isoform 2 (UniProt Q15257)", "log2 fold change": "inactive: -0.046"},
      {"target": "PSMD13 (UniProt Q9UNM6)", "log2 fold change": "inactive: 0.024"},
      {"target": "PSMF1 (UniProt Q5QPM7)", "log2 fold change": "inactive: 0.129"},
      {"target": "PTPRF (UniProt P10586)", "log2 fold change": "inactive: 0.066"},
      {"target": "PTEN isoform 2 (UniProt P60484)", "log2 fold change": "inactive: -0.054"},
      {"target": "PRSS8 (UniProt Q16651)", "log2 fold change": "inactive: -0.436"},
      {"target": "PSME3 isoform 2 (UniProt P61289)", "log2 fold change": "inactive: 0.014"},
      {"target": "PSME2 (UniProt Q9UL46)", "log2 fold change": "inactive: -0.001"},
      {"target": "PUM2 (UniProt Q8TB72)", "log2 fold change": "inactive: -0.136"},
      {"target": "PSMB2, A0A087WVV1", "log2 fold change": "inactive: 0.225"},
      {"target": "PRPH isoform 2 (UniProt P41219)", "log2 fold change": "inactive: -0.015"},
      {"target": "PTMS (UniProt P20962)", "log2 fold change": "inactive: -0.058"},
      {"target": "PTBP3 isoform 4 (UniProt O95758)", "log2 fold change": "inactive: 0.042"},
      {"target": "PTCD3 (UniProt Q96EY7)", "log2 fold change": "inactive: 0.029"},
      {"target": "PSMD4 (UniProt Q5VWC4)", "log2 fold change": "inactive: -0.014"},
      {"target": "PRR12 (UniProt Q9ULL5)", "log2 fold change": "inactive: 0.038"},
      {"target": "PRR14L (UniProt Q5THK1)", "log2 fold change": "inactive: -0.025"},
      {"target": "PUF60 isoform 2 (UniProt Q9UHX1)", "log2 fold change": "inactive: -0.058"},
      {"target": "PSMD14 (UniProt O00487)", "log2 fold change": "inactive: 0.003"}
    ]}
  ]
}
